This data set relates to Runx2. The data set can be described thus: DAPA (streptavidin pull-down, immunoblot). The conditions noted are these: DAPA: HEK293 lysate (500-1000 ug) with 1 uL biotinylated probe overnight, washes in 1x annealing buffer, 1x gel shift buffer and PBS, protein in a lysate after overexpression, protein details: Myc (pCS4-3Myc), label: 5' biotin on both strands. (Mobility shift assays separate free from complexed probe on a gel.)

For at least one entry, the source does not settle the construct or the ends of the probe. Where cells or extracts were used, other partners may take part. At least one verdict rests on a figure or table, not on a statement of the authors.

Take “GCAAGGCCACGTGGAGGACACGGG (double strand) [OSE2 biotinylated probe]”: the binding result (increasing co-expressed HA-CypA, Runx2 binding increases with CypA amount) was “binds” and the binding result (without co-expressed CypA) is listed as “binds”.

The values above are taken from publication PMC9409320.
